Measurements: the supplement of paper PMC7830784
Where “and” joins values, the source holds several entries; their conditions need not be identical. Equal entries are not always repeated. Structures can show the parent of a compound that is named as a salt. The list shows a part of the results. This data set is noisy: repeats of one test often differ as much as different tests do.

tested on: Brugia pahangi adult female; experiment: motility inhibition on day 3 relative to DMSO vehicle; higher = more active; details: 10 µM; 3 days

How did the “motility inhibition on day 3” value turn out when Nc1ncnc2c1ncn2[C@@H]1O[C@H](CO)[C@@H](O)[C@H]1O [adenosine] was run?
Its value is under 0%.

How did the “motility inhibition on day 3” value turn out when CC(=O)O[C@@]12CO[C@@H]1C[C@H](O)[C@@]1(C)C(=O)[C@H](O)C3=C(C)[C@@H](OC(=O)[C@H](O)[C@@H](NC(=O)OC(C)(C)C)c4ccccc4)C[C@@](O)([C@@H](OC(=O)c4ccccc4)[C@H]21)C3(C)C [docetaxel] was run?
The value was 3.86%.

CC(O)C(=O)O.N (configuration not stated) [ammonium lactate] was tested. Which “motility inhibition on day 3” value did it give?
The value was 27.3%.

With CN1C(=O)CC(c2ccccc2)C1=O (configuration not stated) [phensuccimide] as the molecule, how does the “motility inhibition on day 3” value read?
Its value is 57.7%.

How did the “motility inhibition on day 3” value turn out when CC1CNc2c(cccc2S(=O)(=O)N[C@@H](CCCNC(=N)N)C(=O)N2CC[C@@H](C)C[C@@H]2C(=O)O)C1 (some centres not stated) was run?
The value was 23.9%.

For CN(C)CCN(Cc1ccccc1)c1ccccn1 [Tripelennamine hydrochloride], which “motility inhibition on day 3” value is on record?
Its value is 39.3%.

Which “motility inhibition on day 3” value does the source give for C=CC1=C(C)c2cc3[nH]c(cc4nc(cc5[nH]c(cc1n2)c(C)c5CCC(=O)O)C(CCC(=O)O)=C4C)c(C)c3C=C [protoporphyrin ix] here?
The value was under 0%.

Which “motility inhibition on day 3” value does the source give for CO[C@H]1C[C@@H]2CC[C@@H](C)[C@@](O)(O2)C(=O)C(=O)N2CCCC[C@H]2C(=O)O[C@H]([C@H](C)C[C@@H]2CC[C@@H](OCCO)[C@H](OC)C2)CC(=O)[C@H](C)/C=C(\C)[C@@H](O)[C@@H](OC)C(=O)[C@H](C)C[C@H](C)/C=C/C=C/C=C/1C [Everolimus] here?
Its value is 14.6%.

N=C(N)c1ccc(OCCCCCOc2ccc(C(=N)N)cc2)cc1 [Pentamidine isethionate] was tested. Which “motility inhibition on day 3” value did it give?
Its value is 49.6%.

How did the “motility inhibition on day 3” value turn out when O=C(OC[C@H]1O[C@@H](OC(=O)c2cc(O)c(O)c(OC(=O)c3cc(O)c(O)c(O)c3)c2)[C@H](OC(=O)c2cc(O)c(O)c(OC(=O)c3cc(O)c(O)c(O)c3)c2)[C@@H](OC(=O)c2cc(O)c(O)c(OC(=O)c3cc(O)c(O)c(O)c3)c2)[C@@H]1OC(=O)c1cc(O)c(O)c(OC(=O)c2cc(O)c(O)c(O)c2)c1)c1cc(O)c(O)c(OC(=O)c2cc(O)c(O)c(O)c2)c1 [tannic acid] was run?
Its value is 29.6%.

For CCCCC(=O)O[C@H]1CC[C@H]2[C@@H]3CCc4cc(O)ccc4[C@H]3CC[C@]12C [estradiol valerate], which “motility inhibition on day 3” value is on record?
The value was 5.13%.

With Cc1ccc(Nc2c(F)cccc2Cl)c(CC(=O)O)c1 [lumiracoxib] as the molecule, how does the “motility inhibition on day 3” value read?
The value was 22%.

For Fc1ccc(C(c2ccc(F)cc2)N2CCN(C/C=C/c3ccccc3)CC2)cc1 [Flunarizine dihydrochloride], which “motility inhibition on day 3” value is on record?
The value was 11.5%.

How did the “motility inhibition on day 3” value turn out when CN1CCc2c(c3ccccc3n2Cc2ccccc2)C1 [mebhydrolin naphthalenesulfonate] was run?
The value was under 0%.

For Cc1ccc2c(Br)cc(Br)c(OC(=O)c3ccccc3)c2n1 [broxaldine], which “motility inhibition on day 3” value is on record?
Its value is 78.7%.

With CN[C@@H]1[C@H](O[C@H]2[C@H](O[C@H]3[C@H](O)[C@@H](O)[C@H](N=C(N)N)[C@@H](O)[C@@H]3N=C(N)N)O[C@@H](C)[C@]2(O)C=O)O[C@@H](CO)[C@H](O)[C@H]1O [streptomycin sulfate] as the molecule, how does the “motility inhibition on day 3” value read?
Its value is under 0%.

How did the “motility inhibition on day 3” value turn out when Cc1cccc(C(=O)O)c1O [hydroxytoluic acid] was run?
Its value is under 0%.

For COc1cccc2c1C(=O)c1c(O)c3c(c(O)c1C2=O)C[C@@](O)(C(=O)CO)C[C@@H]3O[C@H]1C[C@H](N)[C@H](O)[C@H](C)O1 [doxorubicin], which “motility inhibition on day 3” value is on record?
The value was 24.6%.

CCC(=O)O[C@@H](O[P@](=O)(CCCCc1ccccc1)CC(=O)N1C[C@H](C2CCCCC2)C[C@H]1C(=O)O)C(C)C [Fosinopril] was tested. Which “motility inhibition on day 3” value did it give?
Its value is 7.77%.

With CC1(C)S[C@@H]2[C@H](NC(=O)[C@H](N)c3ccc(O)cc3)C(=O)N2[C@H]1C(=O)O [amoxicillin] as the molecule, how does the “motility inhibition on day 3” value read?
Its value is 6.71%.

With OCCOCCN1CCN(C2=Nc3ccccc3Sc3ccccc32)CC1 [quetiapine] as the molecule, how does the “motility inhibition on day 3” value read?
Its value is under 0%.

Oc1ncnc2[nH]ncc12 [Allopurinol] was tested. Which “motility inhibition on day 3” value did it give?
Its value is under 0%.

With C[C@]12CCC(=O)C=C1CC[C@@H]1[C@@H]2[C@@H](O)C[C@@]2(C)[C@H]1CC[C@]2(O)C(=O)CO [hydrocortisone] as the molecule, how does the “motility inhibition on day 3” value read?
Its value is 29.6%.

Which “motility inhibition on day 3” value does the source give for CCOC(=O)C1=C[C@@H](OC(CC)CC)[C@H](NC(C)=O)[C@@H](N)C1 [oseltamivir phosphate] here?
The value was 33.3%.

For CCOC(=O)C1=C[C@@H](OC(CC)CC)[C@H](NC(C)=O)[C@@H](N)C1 [Oseltamivir], which “motility inhibition on day 3” value is on record?
The value was 3.43%.

For CNCCCC1c2ccccc2C=Cc2ccccc21 [Protriptyline hydrochloride], which “motility inhibition on day 3” value is on record?
The value was 20.6%.

With Cc1onc(-c2ccccc2)c1-c1ccc(S(N)(=O)=O)cc1 [valdecoxib] as the molecule, how does the “motility inhibition on day 3” value read?
Its value is under 0%.

How did the “motility inhibition on day 3” value turn out when CCCc1cc(=O)[nH]c(=S)[nH]1 [propylthiouracil] was run?
The value was under 0%.

CN(N=O)C(=O)N[C@H]1C(O)O[C@H](CO)[C@@H](O)[C@@H]1O (mixture of isomers) [streptozosin] was tested. Which “motility inhibition on day 3” value did it give?
The value was under 0%.

With CO/N=C(\C(=O)N[C@@H]1C(=O)N2C(C(=O)OCOC(=O)C(C)(C)C)=C(/C=C\c3scnc3C)CS[C@H]12)c1csc(N)n1 [Cefditoren Pivoxil] as the molecule, how does the “motility inhibition on day 3” value read?
Its value is under 0%.

With CO/N=C(\C(=O)N[C@@H]1C(=O)N2C(C(=O)OCOC(=O)C(C)(C)C)=C(/C=C\c3scnc3C)CS[C@H]12)c1csc(N)n1 [cefditorin pivoxil] as the molecule, how does the “motility inhibition on day 3” value read?
The value was under 0%.

How did the “motility inhibition on day 3” value turn out when CC(C)(C(=O)O)c1ccc(C(O)CCCN2CCC(C(O)(c3ccccc3)c3ccccc3)CC2)cc1 (configuration not stated) [fexofenadine hydrochloride] was run?
The value was 4.7%.

With Cc1cc(C(C)(C)C)c(O)c(C)c1CC1=NCCN1 [Oxymetazoline hydrochloride] as the molecule, how does the “motility inhibition on day 3” value read?
The value was 18.7%.

With CN(C)CCCN1c2ccccc2Sc2ccccc21 [promazine hydrochloride] as the molecule, how does the “motility inhibition on day 3” value read?
Its value is 37.1%.

With C[N+]1(C)[C@@H]2C[C@@H](OC(=O)C(O)(c3cccs3)c3cccs3)C[C@H]1[C@@H]1O[C@@H]12 [Tiotropium Bromide] as the molecule, how does the “motility inhibition on day 3” value read?
The value was under 0%.

C[C@H]1COc2c(C3(N)CC3)c(F)cc3c(=O)c(C(=O)O)cn1c23 [pazufloxacin mesylate] was tested. Which “motility inhibition on day 3” value did it give?
Its value is 20.6%.

With CC(C(=O)O)c1ccc2c(c1)Cc1cccnc1O2 (configuration not stated) [pranoprofen] as the molecule, how does the “motility inhibition on day 3” value read?
Its value is 2.29%.

For CSc1ccc2c(c1)C(N1CCN(C)CC1)Cc1ccccc1S2 (configuration not stated) [Methiothepin mesylate], which “motility inhibition on day 3” value is on record?
Its value is 23%.

With CC(=O)Nc1ccccc1 [acetanilide] as the molecule, how does the “motility inhibition on day 3” value read?
Its value is 2.6%.

Which “motility inhibition on day 3” value does the source give for COC(=O)C1=C(C)NC(C)=C(C(=O)OCCN2CCN(C(c3ccccc3)c3ccccc3)CC2)C1c1cccc([N+](=O)[O-])c1 (configuration not stated) [manidipine hydrochloride] here?
Its value is 14.7%.

How did the “motility inhibition on day 3” value turn out when Cc1c(C)c2c(c(C)c1O)CCC(C)(COc1ccc(CC3SC(=O)NC3=O)cc1)O2 (configuration not stated) [Troglitazone] was run?
Its value is 14.5%.

How did the “motility inhibition on day 3” value turn out when C[N+]1(C)[C@@H]2CC[C@H]1C[C@@H](OC(=O)C(O)c1ccccc1)C2 (some centres not stated) [homatropine methylbromide] was run?
Its value is 16.2%.

How did the “motility inhibition on day 3” value turn out when NCCNCCNCCNCCN [Tetraethylenepentamine pentahydrochloride] was run?
Its value is 7.57%.

Which “motility inhibition on day 3” value does the source give for Cc1cc2c(cc1S(N)(=O)=O)S(=O)(=O)CCC2 [meticrane] here?
The value was under 0%.

For CCCCCCc1ccc(O)cc1O.Nc1c2ccccc2nc2ccccc12 [acrisorcin], which “motility inhibition on day 3” value is on record?
Its value is 20.8%.

With COC(=O)Nc1nc2cc(C(=O)c3ccccc3)ccc2[nH]1 [mebendazole] as the molecule, how does the “motility inhibition on day 3” value read?
Its value is 5.6%.

With CCCCCCCCCc1ccc(OCCOCCOCCOCCOCCOCCOCCOCCOCCO)cc1 [nonoxynol-9] as the molecule, how does the “motility inhibition on day 3” value read?
Its value is 88.7%.

NC(=O)c1cc[n+](CC2=C(C(=O)O)N3C(=O)[C@@H](NC(=O)[C@@H](c4ccccc4)S(=O)(=O)[O-])[C@H]3SC2)cc1 [cefsulodin sodium] was tested. Which “motility inhibition on day 3” value did it give?
Its value is 12.9%.

For CC1(C)S[C@@H]2[C@H](NC(=O)[C@H](NC(=O)N3CCNC3=O)c3ccccc3)C(=O)N2[C@H]1C(=O)O [azlocillin sodium], which “motility inhibition on day 3” value is on record?
The value was 13.9%.

Which “motility inhibition on day 3” value does the source give for CCOC(=O)[C@H](CCc1ccccc1)N[C@@H](C)C(=O)N1Cc2ccccc2C[C@H]1C(=O)O [quinapril hydrochloride] here?
Its value is under 0%.

For CC(CCc1ccccc1)NCC(O)c1ccc(O)c(C(N)=O)c1 (configuration not stated) [labetalol hydrochloride], which “motility inhibition on day 3” value is on record?
The value was 1.53%.

For CC1CC(OC(=O)C(O)c2ccccc2)CC(C)(C)C1 (configuration not stated) [cyclandelate], which “motility inhibition on day 3” value is on record?
The value was 12.4%.

For O=C(O)c1cccnc1Nc1cccc(C(F)(F)F)c1 [niflumic acid], which “motility inhibition on day 3” value is on record?
Its value is 0.0993%.

With Cc1oncc1C(=O)Nc1ccc(C(F)(F)F)cc1 [lefunamide] as the molecule, how does the “motility inhibition on day 3” value read?
The value was 1.11%.

CN(C)/N=N/c1[nH]cnc1C(N)=O [dacarbazine] was tested. Which “motility inhibition on day 3” value did it give?
The value was 16.6%.

Which “motility inhibition on day 3” value does the source give for CC[N+](C)(C)Cc1ccccc1Br [Bretylium tosylate] here?
The value was 0.476%.

For C[N+](C)(C)CCCCCC[N+](C)(C)C [Hexamethonium dichloride], which “motility inhibition on day 3” value is on record?
Its value is under 0%.

For CN1C(C)(C)CCCC1(C)C [pempidine tartrate], which “motility inhibition on day 3” value is on record?
Its value is 19.8%.

Which “motility inhibition on day 3” value does the source give for Cc1onc(-c2c(Cl)cccc2Cl)c1C(=O)N[C@@H]1C(=O)N2[C@@H]1SC(C)(C)[C@@H]2C(=O)O [dicloxacillin sodium] here?
The value was under 0%.

CCN(CC)CCOC(=O)C(Cc1cccc2ccccc12)CC1CCCO1 (configuration not stated) [nafronyl oxalate] was tested. Which “motility inhibition on day 3” value did it give?
Its value is under 0%.

CC1(C)S[C@@H]2[C@H](NC(=O)C(C(=O)O)c3ccccc3)C(=O)N2[C@H]1C(=O)O (some centres not stated) [carbenicillin disodium] was tested. Which “motility inhibition on day 3” value did it give?
Its value is 33.4%.

How did the “motility inhibition on day 3” value turn out when C[C@H](N)[C@H](O)c1cccc(O)c1 [metaraminol bitartrate] was run?
The value was 2.68% and 17.8%.

With Cc1ccccc1OCC(O)CO (configuration not stated) [mephenesin] as the molecule, how does the “motility inhibition on day 3” value read?
The value was 4.75%.

O=C1CN(/N=C/c2ccc([N+](=O)[O-])o2)C(=O)N1 [nitrofurantoin] was tested. Which “motility inhibition on day 3” value did it give?
Its value is 66.9%.

With CC(C)(C)C(=O)C(Oc1ccc(Cl)cc1)n1ccnc1 (configuration not stated) [climbazole] as the molecule, how does the “motility inhibition on day 3” value read?
The value was 1.88%.

For Cc1cc(NS(=O)(=O)c2ccc(N)cc2)no1 [sulfamethoxazole], which “motility inhibition on day 3” value is on record?
Its value is 19%.

For CN[C@@H]1[C@@H](O)[C@@H](O[C@@H]2[C@@H](O)[C@H](O[C@H]3OC(CN)=CC[C@H]3N)[C@@H](N)C[C@H]2N)OC[C@]1(C)O [sisomicin sulfate], which “motility inhibition on day 3” value is on record?
Its value is 19%.
